Literature values, collected in PMC6153549 (Investigational New Drugs, 2018).

System: UGTs
Details: in vitro, human liver microsomes; cited from earlier work

## CNC(=O)c1ccccc1Sc1ccc2c(/C=C/c3ccccn3)n[nH]c2c1 [axitinib]
  inhibition of paracetamol glucuronidation: slight inhibitory effect
